# Laboratory results from publication PMC10493204.
# Amino acid sequences for entries named in this document (tags omitted). A change or cut given only in a name is not applied to a line headed by its entry.
# UniProt Q99N13: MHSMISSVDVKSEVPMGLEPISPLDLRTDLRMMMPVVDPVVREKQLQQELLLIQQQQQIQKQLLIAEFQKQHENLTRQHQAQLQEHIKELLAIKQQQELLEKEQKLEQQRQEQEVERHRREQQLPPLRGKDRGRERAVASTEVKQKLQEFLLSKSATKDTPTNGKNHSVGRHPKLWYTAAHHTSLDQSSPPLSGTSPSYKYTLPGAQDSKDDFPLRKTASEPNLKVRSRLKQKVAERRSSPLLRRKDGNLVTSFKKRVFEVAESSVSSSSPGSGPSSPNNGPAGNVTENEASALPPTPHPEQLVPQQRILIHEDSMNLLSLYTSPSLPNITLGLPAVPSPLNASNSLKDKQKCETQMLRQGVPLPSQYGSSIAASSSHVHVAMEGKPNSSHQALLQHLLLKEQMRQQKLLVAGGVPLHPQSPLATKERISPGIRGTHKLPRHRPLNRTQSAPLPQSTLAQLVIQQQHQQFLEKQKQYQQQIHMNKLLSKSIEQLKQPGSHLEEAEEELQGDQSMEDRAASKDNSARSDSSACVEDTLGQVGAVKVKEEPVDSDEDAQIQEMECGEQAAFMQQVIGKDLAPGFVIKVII
# UniProt P07356: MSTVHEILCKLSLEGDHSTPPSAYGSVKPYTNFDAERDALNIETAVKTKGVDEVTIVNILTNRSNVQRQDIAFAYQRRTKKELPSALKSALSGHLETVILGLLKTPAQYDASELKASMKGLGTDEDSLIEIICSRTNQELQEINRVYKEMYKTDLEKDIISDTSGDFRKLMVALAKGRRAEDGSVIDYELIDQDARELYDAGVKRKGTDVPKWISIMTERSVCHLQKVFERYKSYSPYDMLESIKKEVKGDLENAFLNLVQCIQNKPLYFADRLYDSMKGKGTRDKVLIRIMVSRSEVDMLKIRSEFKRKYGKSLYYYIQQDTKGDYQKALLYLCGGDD
# Biological target: Histone deacetylase 9 (mouse (endogenous in hippocampus)) (UniProt Q99N13)
# Assay: co-IP; 400 ug hippocampal tissue lysate of CRS mice, antibody overnight at 4 C, Protein A/G PLUS-Agarose 2 h at 4 C, three washes with cold lysis buffer, western blot
substance,measurement,value
Annexin A2 (from UniProt P07356 1-339),binding,binds

# No constants are given. Whether binding was seen depends on the method and setting. Binding seen in cells or lysates may run through a third protein. A result given as binding can be weak or reduced; the word gives no strength.
